Test results published in PubChem BioAssay AID2685 (National Center for Advancing Translational Sciences (NCATS), 2010).
Some of the results follow. The main result of the screen is listed elsewhere. These columns were measured beside it and carry no call. Compounds called inactive in the main read-out are mostly missing here. The note in brackets gives the kind of curve behind each potency; many fits are weak.

Test: qHTS Assay for Lipid Storage Modulators in Drosophila S3 Cells;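 as to cell number change: cells counted by Cell Tracker Red CMTPX staining in the red channel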
Conditions: BODIPY lipid droplet fluorescence, 18-24 h; for cell number change: measured here: cell count max response, cells fed with added oleic acid
Summary of the method: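 Laser-scanning cytometry quantifies lipid droplet accumulation (500–530 nm total intensity; droplet/cell object ratio) in oleic acid-fed (400 uM added) Drosophila S3 cells treated with a concentration series. 20 uM Triacsin C defined 100% inhibition.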

[1] = measured here: cell number channel AC50, cells fed with added oleic acid
[2] = measured here: lipid fluorescence (Fed channel) AC50, cells fed with added oleic acid

| Compound | cell number change [%] | AC50 [1] | AC50 [2] |
| --- | --- | --- | --- |
| CCN(CC)c1nc(N)c2c(N)nc3c(c2c1C#N)CC(c1ccccc1)O3 (stereo unspecified) | -34.7 | 10.3 µM [falling, partial curve] | 2.91 µM [falling, single point] |
| COC(=O)Cn1c(C)c(C(C)=O)c(C(C)=O)c1C | 8.7 | – | 29.1 µM [falling, single point] |
| COc1cc2c(c(OC)c1OC)-c1c(cc3c(c1OC)OCO3)C1OC2[C@@H](C)[C@H]1C (stereo partly specified) | – | – | 29.1 µM [falling, single point] |
| CCOc1cnc(C(=O)NNC(=O)C(Br)C(C)C)o1 (stereo unspecified) | -15.3 | – | – |
| CCOc1ccc(-c2noc(CCC(=O)NCC3CCCO3)n2)cc1OC (stereo unspecified) | -14.3 | – | – |
| Cc1c(Cl)cccc1S(=O)(=O)Nc1ccnn1C | -1.93 | – | 2.91 µM [falling, single point] |
| O=C(CSc1nnc(-c2ccco2)n1Cc1ccco1)NCc1ccccc1 | 39.1 | 18.4 µM [rising, single point] | – |
| O=C(NCC(c1ccco1)N1CCc2ccccc21)c1ccccc1Br (stereo unspecified) | – | 6.51 µM [rising, single point] | 6.51 µM [rising, partial curve, poor fit] |
| CCOC(=O)c1cnc(-n2nc(C)cc2C)nc1NC1CCCC1 | -43.6 | 29.1 µM [falling, single point] | 29.1 µM [falling, single point] |
| N#Cc1cccc(NCC(=O)Nc2ccc3c(c2)OCCO3)c1 | 16.2 | – | – |
| Clc1ccc(Oc2cnc3ccccc3n2)cc1 | -8.62 | – | 29.1 µM [falling, single point] |
| COc1cc2c(cc1OC)CN(c1nc(CN3CCOCC3)nc3sc4c(c13)CCCC4)CC2 | -1.19 | – | 5.8 µM [rising, single point] |
| CCN(CC)c1ccc(NC(=O)CN2CCN(c3ccccn3)CC2)cc1 | 35.1 | 4.11 µM [rising, partial curve, poor fit] | – |
| OCCN1CCN(c2nc(-c3ccccc3)c3cc(Br)ccc3n2)CC1 | -15.3 | 0.092 µM [falling, full curve, poor fit] | 29.1 µM [rising, single point] |
| CCOC(=O)Cn1cc(/C=N/NC(=O)c2cc3ccccc3o2)c2ccccc21 | -75.7 | 14.6 µM [falling, partial curve] | 7.31 µM [falling, partial curve] |
| Cc1cc(NC(=O)CCC(=O)N(Cc2ccco2)C2(C(=O)NC3CCCCC3)CCCC(C)C2)no1 (stereo unspecified) | -13.5 | – | 0.411 µM [falling, full curve, poor fit] |
| CC(Cc1cccs1)NC(=O)CCCn1nnnc1CN1CCOCC1 (stereo unspecified) | 0.88 | – | – |
| COc1ccc2nc(SCC(=O)c3ccco3)[nH]c2c1 | -10.4 | – | 0.58 µM [falling, single point] |
| COC(=O)c1ccc(OC(=O)C23CCC(C)(C(=O)O2)C3(C)C)cc1 (stereo unspecified) | -26.3 | – | – |
| COC(=O)/C=C1/S/C(=N/NC(=O)c2ccccc2C)NC1=O | -14.8 | – | – |
| Cc1ccc(NC(=O)COc2ccc(Br)cn2)cc1 | 15.2 | – | 6.51 µM [falling, single point] |

Just cell number change [%], for some of the entries so far:
Compound,cell number change [%]
N#Cc1cccc(NCC(=O)Nc2ccc3c(c2)OCCO3)c1,16.2
Clc1ccc(Oc2cnc3ccccc3n2)cc1,-8.62
COc1cc2c(cc1OC)CN(c1nc(CN3CCOCC3)nc3sc4c(c13)CCCC4)CC2,-1.19
CCN(CC)c1ccc(NC(=O)CN2CCN(c3ccccn3)CC2)cc1,35.1

Three records picked at random from those above:

| Compound | cell number change [%] | AC50 [1] | AC50 [2] |
| --- | --- | --- | --- |
| CCOc1ccc(-c2noc(CCC(=O)NCC3CCCO3)n2)cc1OC (stereo unspecified) | -14.3 | – | – |
| COC(=O)c1ccc(OC(=O)C23CCC(C)(C(=O)O2)C3(C)C)cc1 (stereo unspecified) | -26.3 | – | – |
| CCOC(=O)c1cnc(-n2nc(C)cc2C)nc1NC1CCCC1 | -43.6 | 29.1 µM [falling, single point] | 29.1 µM [falling, single point] |

Remaining list, next part

| Compound | cell number change [%] | AC50 [1] | AC50 [2] |
| --- | --- | --- | --- |
| CC(=O)Nc1ccc(NC(=O)COC(=O)CCNS(=O)(=O)c2c(Cl)cccc2Cl)cc1 | -19.7 | – | – |
| COC(=O)c1ccc(NC(=O)CCCCCn2nnc3ccccc3c2=O)cc1 | 27 | – | – |
| CCOC(=O)c1c(NC(=O)CSc2cn(CC)c3ccccc23)sc2c1CCC2 | 37 | 5.8 µM [rising, full curve, poor fit] | 5.8 µM [rising, full curve, poor fit] |
| CC(C)OCCCNC(=O)CN1CCN(Cc2ccccc2Cl)C1=O | 31.2 | 6.51 µM [rising, full curve, poor fit] | – |
| O=C(NC(=S)Nc1c(Cl)ccc2nsnc12)c1ccco1 | – | 5.8 µM [rising, single point] | 18.4 µM [rising, single point] |
| Cc1nnc(NC(=O)Nc2cccc(Cl)c2)s1 | – | 4.11 µM [rising, single point] | 4.61 µM [rising, single point] |
| Cc1ccc2nc(-c3ccc(NC(=O)CCS(=O)(=O)c4ccccc4)cc3)sc2c1 | -6.49 | – | 29.1 µM [falling, single point] |
| CCCCn1c(-c2cccnc2)nc2cc3[nH]c(=O)c(C(C)C)nc3cc21 | -13.9 | – | – |
| Cc1ccc(C(=O)Nc2cccc(-c3cnc4ccccc4n3)c2)cc1 | 6.07 | – | 0.116 µM [rising, full curve, poor fit] |
| O=P(C(=NCCO)NO)(N1CCOCC1)N1CCOCC1 | 12.4 | – | 29.1 µM [falling, single point] |
| Cc1cc(C)nc(/N=c2/ssnc2Cl)c1 | -43.2 | 25.9 µM [falling, partial curve] | 32.6 µM [falling, partial curve] |
| CCSc1nnc(NC(=O)C2Cc3ccccc3CN2S(=O)(=O)CC)s1 (stereo unspecified) | – | 6.51 µM [rising, single point] | 6.51 µM [rising, single point] |
| O=C1c2nccnc2C(=O)N1c1ccc(C(F)(F)F)cc1 | -37.7 | 0.184 µM [falling, full curve] | – |
| N#CC1=C(N)N(c2ccccc2Sc2ccccc2)C(=O)C1 | -5.03 | – | – |
| COc1cccc(CNC(=O)Cn2ccc([N+](=O)[O-])n2)c1 | 7.77 | – | 1.84 µM [rising, partial curve] |
| COc1ccccc1-c1noc(CCCC(=O)N2CCOCC2)n1 | 30.7 | 13 µM [rising, partial curve, poor fit] | – |
| CCc1ccc(C(=O)N/N=C/c2cccc3ccccc23)nc1 | 1.75 | – | 7.31 µM [rising, partial curve, poor fit] |
| COc1ccc(Br)cc1CN(C)C(=O)c1cc(Cl)c2c(c1)OCCO2 | 15.7 | – | – |
| CCC(=O)Nc1nonc1-c1nc2ccccc2n1CCC(C)C | 14.9 | – | 4.11 µM [rising, partial curve, poor fit] |
| O=C(CSc1cn[nH]n1)Nc1nc2ccccc2s1 | -2.63 | – | 0.562 µM [falling, full curve] |
| CCOC(=O)C1CCN(C(=S)Nc2cccc(C)c2)CC1 | -84.1 | 29.1 µM [falling, single point] | – |

| Compound | cell number change [%] | AC50 [1] | AC50 [2] |
| --- | --- | --- | --- |
| CC(C)CCN1CCN(Cc2coc3ccccc3c2=O)CC1CCO (stereo unspecified) | 19.8 | – | 29.1 µM [rising, single point] |
| O=C1NCCCC1C(=O)Nc1cccc(C(F)(F)F)c1 (stereo unspecified) | 5.35 | – | 0.82 µM [falling, full curve, poor fit] |
| Cc1ccccc1C(=O)NNC(=O)/C=C/c1ccccc1 | 24.2 | 0.0291 µM [rising, full curve, poor fit] | – |
| CC1CCN(S(=O)(=O)c2ccc(C(=O)N3CCCC(C(F)(F)F)C3)cc2)CC1 (stereo unspecified) | 6.83 | – | – |
| O=C(CCCn1c(=O)c2sccc2n(CC(=O)NCc2ccco2)c1=O)NCc1ccco1 | – | 2.06 µM [rising, partial curve] | – |
| COc1ccc(-c2cc(N3C(=O)Nc4ccccc4N3O)n[nH]2)c(OC)c1 | 21.1 | – | 13 µM [rising, single point] |
| COc1cccc(N(CC(=O)N2CCN(C)CC2)S(=O)(=O)c2ccc(C)cc2)c1 | 0.487 | – | 16.4 µM [falling, partial curve] |
| COc1cccc(C(=O)CN2C3=NCCCN3c3ccccc32)c1 | 26.7 | 4.11 µM [falling, single point] | 2.31 µM [rising, partial curve] |
| CC(=O)c1cccc(Nc2nc(-c3ccccc3)nc3ccccc23)c1 | 18.2 | – | 23.1 µM [falling, single point] |
| CC(=O)Nc1cccc(NC(=O)C(=O)Nc2ccc3c(c2)N(C(=O)C2CC2)CCC3)c1 | 68.5 | 14.6 µM [rising, partial curve] | – |
| C[C@H](NC(=O)c1nc[nH]c1C(=O)N1CCNCC1)C(=O)OCc1ccccc1 | -51.7 | 4.11 µM [falling, partial curve] | 6.51 µM [falling, partial curve] |
| COc1ccccc1CN1CC(C(=O)NCc2cccc(Cl)c2)CCC1=O (stereo unspecified) | -12.9 | – | – |
| CC(=O)Oc1ccc(C(=O)Cc2ccccn2)c(O)c1 | 27.9 | 0.651 µM [rising, full curve] | 6.51 µM [rising, single point] |
| CC(=O)N1CCCc2cc(S(=O)(=O)N3CCCC3)ccc21 | -0.403 | – | – |
| CCCN1CC23C=CC(O2)C(C(=O)O)C3C1=O (stereo unspecified) | -15.8 | – | 0.0731 µM [falling, full curve, poor fit] |
| Cc1ccc(/C=N/NC(=O)c2cc(-c3ccncc3)nc3ccccc23)o1 | -8.01 | – | – |
| CCc1ccc(NC(=O)Cn2cnc3sc(C)c(S(=O)(=O)N4CCOCC4)c3c2=O)cc1 | -8.73 | – | 29.1 µM [rising, single point] |
| O=S(=O)(Cc1cc(Cl)nc(-c2ccccc2)n1)c1ccccc1 | – | – | 0.291 µM [rising, single point] |
| O=C(Cc1n[nH]c(=O)c2ccccc12)NCc1ccccn1 | 0.255 | – | 6.51 µM [falling, partial curve, poor fit] |
| C=CCN(c1nc(C)cc(OC)n1)S(=O)(=O)c1ccc(C)cc1 | 2.2 | – | 32.6 µM [falling, single point] |
| Brc1ccc(-c2nc(-c3ccncc3)no2)o1 | – | 1.84 µM [rising, partial curve] | – |
